Laboratory results: the supplement of paper PMC10849652
The list shows a part of the results.

The chains behind the UniProt entries cited, without tags or fusion partners. Where a name states a change or a piece, a line headed by the entry shows the natural chain unless it says otherwise.
UniProt Q9H2V7: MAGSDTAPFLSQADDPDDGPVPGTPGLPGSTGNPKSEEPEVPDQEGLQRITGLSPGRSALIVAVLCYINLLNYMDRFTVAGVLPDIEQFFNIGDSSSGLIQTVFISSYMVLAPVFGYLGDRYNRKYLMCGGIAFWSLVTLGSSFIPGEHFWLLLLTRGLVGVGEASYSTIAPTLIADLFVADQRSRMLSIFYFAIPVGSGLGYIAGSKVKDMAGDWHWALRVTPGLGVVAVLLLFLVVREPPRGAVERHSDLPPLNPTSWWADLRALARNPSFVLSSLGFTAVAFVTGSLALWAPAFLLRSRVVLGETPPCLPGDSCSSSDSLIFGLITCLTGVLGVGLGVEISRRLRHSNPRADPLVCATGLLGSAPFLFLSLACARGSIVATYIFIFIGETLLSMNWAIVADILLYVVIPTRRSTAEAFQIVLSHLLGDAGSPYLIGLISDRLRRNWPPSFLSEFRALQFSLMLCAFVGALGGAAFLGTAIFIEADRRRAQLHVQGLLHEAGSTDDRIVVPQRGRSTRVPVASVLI
UniProt Q13242, whole entry, looked up: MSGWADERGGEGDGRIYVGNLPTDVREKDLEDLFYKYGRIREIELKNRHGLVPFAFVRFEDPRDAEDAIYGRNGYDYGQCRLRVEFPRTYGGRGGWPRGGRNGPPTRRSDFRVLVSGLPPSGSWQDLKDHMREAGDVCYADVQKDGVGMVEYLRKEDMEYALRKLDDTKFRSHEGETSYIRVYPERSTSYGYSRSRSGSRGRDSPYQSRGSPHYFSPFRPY
UniProt Q05519: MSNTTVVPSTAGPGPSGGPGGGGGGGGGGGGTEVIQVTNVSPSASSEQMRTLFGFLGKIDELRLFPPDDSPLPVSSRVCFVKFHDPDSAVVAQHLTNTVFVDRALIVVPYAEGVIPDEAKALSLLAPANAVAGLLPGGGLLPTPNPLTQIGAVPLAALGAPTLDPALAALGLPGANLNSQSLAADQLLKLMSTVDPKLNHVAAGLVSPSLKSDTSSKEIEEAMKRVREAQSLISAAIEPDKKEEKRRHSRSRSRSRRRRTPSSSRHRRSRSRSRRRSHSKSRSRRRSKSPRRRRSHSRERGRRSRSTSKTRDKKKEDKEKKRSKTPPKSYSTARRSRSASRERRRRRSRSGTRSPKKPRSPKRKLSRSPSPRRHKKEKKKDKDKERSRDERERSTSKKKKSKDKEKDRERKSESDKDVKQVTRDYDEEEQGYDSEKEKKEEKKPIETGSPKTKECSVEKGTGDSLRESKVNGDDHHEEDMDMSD
UniProt Q15468: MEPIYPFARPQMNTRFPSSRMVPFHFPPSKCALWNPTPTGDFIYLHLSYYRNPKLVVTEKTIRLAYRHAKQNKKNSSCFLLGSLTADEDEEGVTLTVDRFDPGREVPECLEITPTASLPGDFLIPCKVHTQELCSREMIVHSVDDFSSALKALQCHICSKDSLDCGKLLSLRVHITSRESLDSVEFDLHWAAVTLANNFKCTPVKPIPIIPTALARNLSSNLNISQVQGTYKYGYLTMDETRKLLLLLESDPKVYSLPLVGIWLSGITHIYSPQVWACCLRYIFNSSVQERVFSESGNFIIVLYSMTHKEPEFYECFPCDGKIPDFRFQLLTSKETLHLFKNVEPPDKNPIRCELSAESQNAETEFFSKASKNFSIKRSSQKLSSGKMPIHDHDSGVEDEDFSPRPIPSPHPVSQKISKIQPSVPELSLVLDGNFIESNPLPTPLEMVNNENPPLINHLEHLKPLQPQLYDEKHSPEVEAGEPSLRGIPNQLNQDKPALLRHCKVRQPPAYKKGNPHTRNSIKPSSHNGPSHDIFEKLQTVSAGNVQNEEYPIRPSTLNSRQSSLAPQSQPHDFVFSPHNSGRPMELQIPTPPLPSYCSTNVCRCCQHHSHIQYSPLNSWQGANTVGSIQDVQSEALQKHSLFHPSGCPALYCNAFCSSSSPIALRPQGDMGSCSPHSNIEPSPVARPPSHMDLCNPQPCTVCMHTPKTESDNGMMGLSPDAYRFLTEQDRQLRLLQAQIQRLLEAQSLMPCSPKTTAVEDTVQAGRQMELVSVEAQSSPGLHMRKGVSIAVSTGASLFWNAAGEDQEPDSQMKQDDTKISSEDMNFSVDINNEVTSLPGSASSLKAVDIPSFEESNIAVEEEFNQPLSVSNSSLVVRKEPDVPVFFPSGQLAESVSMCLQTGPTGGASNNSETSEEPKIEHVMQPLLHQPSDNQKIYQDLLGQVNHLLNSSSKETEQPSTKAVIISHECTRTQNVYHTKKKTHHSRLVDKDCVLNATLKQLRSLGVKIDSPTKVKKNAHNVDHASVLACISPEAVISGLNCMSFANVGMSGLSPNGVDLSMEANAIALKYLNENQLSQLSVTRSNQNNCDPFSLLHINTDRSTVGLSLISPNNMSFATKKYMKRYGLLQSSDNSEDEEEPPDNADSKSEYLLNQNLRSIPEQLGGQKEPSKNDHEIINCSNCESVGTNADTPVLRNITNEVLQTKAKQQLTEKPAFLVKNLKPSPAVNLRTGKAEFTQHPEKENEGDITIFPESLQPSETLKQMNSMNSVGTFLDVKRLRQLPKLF
UniProt Q9UBP0: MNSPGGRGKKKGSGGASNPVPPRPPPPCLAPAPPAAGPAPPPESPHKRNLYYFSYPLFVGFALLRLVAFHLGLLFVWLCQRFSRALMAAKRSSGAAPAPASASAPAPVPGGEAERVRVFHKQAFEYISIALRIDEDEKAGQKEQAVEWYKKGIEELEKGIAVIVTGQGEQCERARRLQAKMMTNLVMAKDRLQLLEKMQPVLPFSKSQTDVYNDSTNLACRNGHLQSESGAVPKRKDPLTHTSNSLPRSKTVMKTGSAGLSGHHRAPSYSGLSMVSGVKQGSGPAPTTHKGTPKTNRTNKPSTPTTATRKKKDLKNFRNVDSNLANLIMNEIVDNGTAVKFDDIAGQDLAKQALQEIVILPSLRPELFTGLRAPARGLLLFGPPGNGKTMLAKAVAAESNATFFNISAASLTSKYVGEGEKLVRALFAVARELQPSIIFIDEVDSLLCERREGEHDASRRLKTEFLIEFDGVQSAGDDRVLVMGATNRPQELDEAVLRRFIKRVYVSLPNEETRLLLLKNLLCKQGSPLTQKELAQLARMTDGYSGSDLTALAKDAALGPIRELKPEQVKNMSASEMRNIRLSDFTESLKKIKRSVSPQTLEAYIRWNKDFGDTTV
UniProt Q6ZRS2, whole entry, looked up: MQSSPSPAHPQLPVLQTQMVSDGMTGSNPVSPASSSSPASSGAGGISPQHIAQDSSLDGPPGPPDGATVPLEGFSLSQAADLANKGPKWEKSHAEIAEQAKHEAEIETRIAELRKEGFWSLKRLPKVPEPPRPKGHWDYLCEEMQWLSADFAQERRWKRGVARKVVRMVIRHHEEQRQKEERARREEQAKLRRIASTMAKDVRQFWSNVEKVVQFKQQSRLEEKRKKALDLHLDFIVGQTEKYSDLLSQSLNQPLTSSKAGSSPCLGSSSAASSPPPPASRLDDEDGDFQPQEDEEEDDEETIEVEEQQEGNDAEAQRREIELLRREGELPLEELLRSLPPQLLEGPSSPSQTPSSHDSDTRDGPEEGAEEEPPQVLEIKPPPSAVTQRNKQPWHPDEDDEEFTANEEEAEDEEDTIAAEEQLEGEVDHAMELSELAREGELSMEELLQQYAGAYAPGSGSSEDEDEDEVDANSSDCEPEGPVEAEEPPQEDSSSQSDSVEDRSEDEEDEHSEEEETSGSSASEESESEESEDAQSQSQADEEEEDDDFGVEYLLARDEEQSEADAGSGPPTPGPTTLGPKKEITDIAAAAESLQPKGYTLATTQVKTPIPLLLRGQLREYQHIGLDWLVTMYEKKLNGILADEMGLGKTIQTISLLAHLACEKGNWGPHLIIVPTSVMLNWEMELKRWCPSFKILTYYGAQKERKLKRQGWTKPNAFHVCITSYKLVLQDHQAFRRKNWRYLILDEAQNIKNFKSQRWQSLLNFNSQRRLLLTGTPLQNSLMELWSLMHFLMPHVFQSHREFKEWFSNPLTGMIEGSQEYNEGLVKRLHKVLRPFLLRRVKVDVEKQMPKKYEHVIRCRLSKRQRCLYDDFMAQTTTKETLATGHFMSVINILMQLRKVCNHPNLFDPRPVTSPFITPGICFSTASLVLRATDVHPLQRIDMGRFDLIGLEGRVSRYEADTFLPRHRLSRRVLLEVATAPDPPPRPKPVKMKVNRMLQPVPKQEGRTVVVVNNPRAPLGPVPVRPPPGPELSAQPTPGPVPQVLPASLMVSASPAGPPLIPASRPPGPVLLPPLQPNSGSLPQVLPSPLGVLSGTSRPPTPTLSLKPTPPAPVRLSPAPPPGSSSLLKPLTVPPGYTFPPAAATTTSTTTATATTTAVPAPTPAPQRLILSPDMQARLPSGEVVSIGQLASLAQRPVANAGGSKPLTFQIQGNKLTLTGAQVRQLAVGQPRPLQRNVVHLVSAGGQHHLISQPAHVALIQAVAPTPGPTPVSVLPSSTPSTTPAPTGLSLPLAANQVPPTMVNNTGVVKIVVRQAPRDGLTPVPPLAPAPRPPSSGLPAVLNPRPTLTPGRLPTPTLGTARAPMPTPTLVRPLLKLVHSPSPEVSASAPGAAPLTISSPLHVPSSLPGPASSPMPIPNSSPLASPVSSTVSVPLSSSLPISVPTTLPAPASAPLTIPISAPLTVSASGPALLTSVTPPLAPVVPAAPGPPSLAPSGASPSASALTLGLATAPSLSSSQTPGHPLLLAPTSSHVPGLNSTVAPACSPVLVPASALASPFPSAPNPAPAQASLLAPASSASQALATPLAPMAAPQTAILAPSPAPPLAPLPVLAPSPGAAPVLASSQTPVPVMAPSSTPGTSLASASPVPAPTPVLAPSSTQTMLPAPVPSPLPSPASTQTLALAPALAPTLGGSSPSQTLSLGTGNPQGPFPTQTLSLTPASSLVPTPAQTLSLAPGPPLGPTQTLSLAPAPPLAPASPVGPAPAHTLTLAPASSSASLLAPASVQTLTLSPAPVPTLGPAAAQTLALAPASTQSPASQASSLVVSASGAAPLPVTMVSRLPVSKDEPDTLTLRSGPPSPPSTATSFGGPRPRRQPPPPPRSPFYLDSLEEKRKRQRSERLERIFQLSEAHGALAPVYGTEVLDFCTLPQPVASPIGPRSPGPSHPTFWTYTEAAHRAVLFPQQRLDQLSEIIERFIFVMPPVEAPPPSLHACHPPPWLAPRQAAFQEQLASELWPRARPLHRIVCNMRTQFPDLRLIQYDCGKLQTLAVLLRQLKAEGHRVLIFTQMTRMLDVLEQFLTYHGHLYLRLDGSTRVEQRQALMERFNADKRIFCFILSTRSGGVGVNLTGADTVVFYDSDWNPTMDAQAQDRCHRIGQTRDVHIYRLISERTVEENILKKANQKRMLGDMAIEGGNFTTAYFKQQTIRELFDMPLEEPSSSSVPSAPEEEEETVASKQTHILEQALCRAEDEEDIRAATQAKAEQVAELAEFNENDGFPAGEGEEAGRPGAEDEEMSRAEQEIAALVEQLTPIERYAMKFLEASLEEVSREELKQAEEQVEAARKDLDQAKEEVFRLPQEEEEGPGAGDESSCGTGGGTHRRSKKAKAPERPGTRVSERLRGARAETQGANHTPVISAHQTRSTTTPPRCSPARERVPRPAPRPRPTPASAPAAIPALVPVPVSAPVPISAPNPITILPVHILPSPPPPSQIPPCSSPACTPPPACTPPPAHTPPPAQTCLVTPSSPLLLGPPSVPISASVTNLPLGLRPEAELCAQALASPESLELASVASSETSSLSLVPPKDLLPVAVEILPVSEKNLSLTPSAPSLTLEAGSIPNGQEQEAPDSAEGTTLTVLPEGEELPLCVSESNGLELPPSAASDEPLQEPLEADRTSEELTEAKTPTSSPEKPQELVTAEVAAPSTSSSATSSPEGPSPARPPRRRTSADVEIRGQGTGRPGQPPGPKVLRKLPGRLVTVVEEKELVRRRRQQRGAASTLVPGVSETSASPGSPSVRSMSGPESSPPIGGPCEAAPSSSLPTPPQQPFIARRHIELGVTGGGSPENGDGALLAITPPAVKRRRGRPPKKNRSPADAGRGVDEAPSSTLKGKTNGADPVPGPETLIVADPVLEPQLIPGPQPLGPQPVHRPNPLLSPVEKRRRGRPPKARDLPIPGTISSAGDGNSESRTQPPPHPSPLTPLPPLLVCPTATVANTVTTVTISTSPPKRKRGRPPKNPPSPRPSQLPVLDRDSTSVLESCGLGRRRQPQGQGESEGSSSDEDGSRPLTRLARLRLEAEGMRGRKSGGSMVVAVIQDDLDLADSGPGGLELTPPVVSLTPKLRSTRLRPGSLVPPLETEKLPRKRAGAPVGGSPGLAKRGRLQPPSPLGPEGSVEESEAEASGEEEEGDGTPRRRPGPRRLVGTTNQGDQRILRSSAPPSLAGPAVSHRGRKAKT
UniProt Q9BYN0: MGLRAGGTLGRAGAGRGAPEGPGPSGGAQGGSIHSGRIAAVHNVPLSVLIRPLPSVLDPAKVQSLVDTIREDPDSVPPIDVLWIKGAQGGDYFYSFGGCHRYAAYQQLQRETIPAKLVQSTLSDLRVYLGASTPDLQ

Key:
Assay in all cases: log2 fold change, soluble protein after heating vs DMSO (PISA); higher = thermal stabilisation; K562 lysate, 10 uM; active = over 0.2 and 3.5 SD of the protein, either way, in both replicates (recomputed)
vemurafenib = compound: CCCS(=O)(=O)Nc1ccc(F)c(C(=O)c2c[nH]c3ncc(-c4ccc(Cl)cc4)cc23)c1F [vemurafenib]
In short: (§1)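 Thermal stability, expressed as log-two fold change relative to solvent controls, is given from duplicates. Crude K562 extract in PBS pH 7.4 with 1 mM MgCl2, at 1 mg/mL protein, was treated with 10 μM compound for 30 min and heated in aliquots for 3 min across 48°C-58°C. After pooling, adjustment to 0.5% NP-40 at 4°C and centrifugation at 21,000xg for 90 min, supernatant protein was measured by TMTpro 16plex LC-MS/MS with channel sums equalised.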

[1] = compound: CCCS(=O)(=O)Nc1ccc(F)c(C(=O)c2c[nH]c3ncc(Cl)cc23)c1F
In short: as §1

barasertib = compound: CCN(CCCOc1ccc2c(Nc3cc(CC(=O)Nc4cccc(F)c4)[nH]n3)ncnc2c1)CCOP(=O)(O)O [barasertib]
In short: as §1

[2] = compound: CC[C@@H]1C(=O)N(C)c2cnc(Nc3ccc(C(=O)NC4CCN(C)CC4)cc3OC)nc2N1C1CCCC1
In short: as §1

volasertib = compound: CC[C@@H]1C(=O)N(C)c2cnc(Nc3ccc(C(=O)N[C@H]4CC[C@H](N5CCN(CC6CC6)CC5)CC4)cc3OC)nc2N1C(C)C [volasertib]
In short: as §1

[3] = compound: CCn1c(C(=O)N(C2CC2)C2CC2)cc2c3c(ncn3C)c(Nc3cc(C)n(C)n3)nc21
In short: as §1

[4] = compound: CCn1cc(-c2ccnc3[nH]c(-c4cccc(CN(C)C)c4)cc23)c(-c2ccc(NC(=O)N(C)C)cc2)n1
In short: as §1

[5] = compound: CN1CCC(CNc2ccc3ncc(-c4cccc(OC(F)(F)F)c4)n3n2)CC1
In short: as §1

saracatinib = compound: CN1CCN(CCOc2cc(OC3CCOCC3)c3c(Nc4c(Cl)ccc5c4OCO5)ncnc3c2)CC1 [saracatinib]
In short: as §1

sotrastaurin = compound: CN1CCN(c2nc(C3=C(c4c[nH]c5ccccc45)C(=O)NC3=O)c3ccccc3n2)CC1 [sotrastaurin]
In short: as §1

alvocidib = compound: CN1CC[C@H](c2c(O)cc(O)c3c(=O)cc(-c4ccccc4Cl)oc23)[C@H](O)C1 [alvocidib]
In short: as §1

Tubastatin A = compound: CN1CCc2c(c3ccccc3n2Cc2ccc(C(=O)NO)cc2)C1 [Tubastatin A]
In short: as §1

[6] = compound: CNC(=O)C1=CC=CC=C1NC2=NC(=NC=C2Cl)NC3=C(C=C(C=C3)N4CCOCC4)OC
In short: as §1

defactinib = compound: CNC(=O)c1ccc(Nc2ncc(C(F)(F)F)c(NCc3nccnc3N(C)S(C)(=O)=O)n2)cc1 [defactinib]
In short: as §1

[7] = compound: CNc1nc(-c2ccc3c(N)n[nH]c3c2)cc(N2C[C@@H](C(=O)NC3CCCCC3)CC[C@H]2C)n1
In short: as §1

encorafenib = compound: COC(=O)N[C@@H](C)CNc1nccc(-c2cn(C(C)C)nc2-c2cc(Cl)cc(NS(C)(=O)=O)c2F)n1 [encorafenib]
In short: as §1

[8] = compound: COC(=O)[C@H](CCSC)NC(=O)C1=C(C=C(C=C1)NC[C@H](CS)N)C2=CC=CC=C2
In short: as §1

alisertib = compound: COc1cc(Nc2ncc3c(n2)-c2ccc(Cl)cc2C(c2c(F)cccc2OC)=NC3)ccc1C(=O)O [alisertib]
In short: as §1

[9] = compound: COc1cc2nc(-c3cc(F)ccc3O)nc(N[C@@H]3CNC[C@H]3C(C)(C)O)c2cc1OC
In short: as §1

gefitinib = compound: COc1cc2ncnc(Nc3ccc(F)c(Cl)c3)c2cc1OCCCN1CCOCC1 [gefitinib]
In short: as §1

Measured: log2 fold change

SPNS1 (UniProt Q9H2V7)
inactive: vemurafenib 0 | [1] 0.036 | barasertib -0.004 | [2] 0.154 | volasertib -0.004 | [3] -0.097 | [4] -0.014 | [5] 0.064 | saracatinib -0.006 | sotrastaurin 0.02 | alvocidib -0.118 | Tubastatin A 0.034 | [6] 0.06 | defactinib 0.095 | [7] -0.03 | encorafenib 0.019 | [8] -0.031 | alisertib 0.047 | [9] 0.019 | gefitinib -0.015

SRSF9 (UniProt Q13242)
inactive: vemurafenib -0.104 | [1] 0.009 | barasertib 0.049 | [2] -0.05 | volasertib -0.029 | [3] 0.03 | [4] -0.006 | [5] -0.029 | saracatinib -0.021 | sotrastaurin -0.064 | alvocidib -0.021 | Tubastatin A -0.165 | [6] 0.002 | defactinib -0.054 | [7] -0.044 | encorafenib 0 | [8] -0.084 | alisertib -0.013 | [9] -0.017 | gefitinib -0.022

SPATS2 (UniProt Q86XZ4)
inactive: vemurafenib -0.013 | [1] 0.032 | barasertib 0.071 | [2] -0.175 | volasertib -0.041 | [3] 0.128 | [4] 0.144 | [5] 0.038 | saracatinib -0.12 | sotrastaurin 0.031 | alvocidib 0.039 | Tubastatin A -0.075 | [6] 0.019 | defactinib 0.353 | [7] 0.036 | encorafenib 0.066 | [8] -0.195 | alisertib -0.015 | [9] -0.047 | gefitinib 0

SRSF11 (UniProt Q05519)
inactive: vemurafenib -0.022 | [1] 0.007 | barasertib 0.018 | [2] -0.012 | volasertib -0.004 | [3] -0.018 | [4] 0.059 | [5] -0.026 | saracatinib 0.008 | sotrastaurin -0.01 | alvocidib -0.062 | Tubastatin A 0.029 | [6] -0.033 | defactinib -0.041 | [7] 0.012 | encorafenib -0.003 | [8] -0.029 | alisertib 0.025 | [9] 0.007 | gefitinib -0.001

STIL isoform 2 (UniProt Q15468)
inactive: vemurafenib 0.018 | [1] -0.059 | barasertib 0.042 | [2] 0.04 | volasertib -0.023 | [3] -0.032 | [4] -0.003 | [5] -0.016 | saracatinib 0.027 | sotrastaurin 0.045 | alvocidib 0.021 | Tubastatin A -0.164 | [6] 0.011 | defactinib 0.051 | [7] 0.001 | encorafenib 0.083 | [8] -0.012 | alisertib 0.09 | [9] 0.086 | gefitinib 0.033

SSX2 (UniProt Q16385)
inactive: vemurafenib 0.002 | [1] 0.043 | barasertib 0.024 | [2] -0.016 | volasertib -0.025 | [3] 0.098 | [4] -0.016 | [5] 0.037 | saracatinib 0.039 | sotrastaurin 0.038 | alvocidib -0.02 | Tubastatin A -0.064 | [6] 0.07 | defactinib -0.014 | [7] -0.003 | encorafenib 0.01 | [8] 0 | alisertib 0.005 | [9] -0.007 | gefitinib -0.017

SPG7 (UniProt Q9UQ90)
inactive: vemurafenib 0.027 | [1] -0.025 | barasertib 0.131 | [2] 0.017 | volasertib 0.053 | [3] 0.26 | [4] 0.057 | [5] 0.025 | saracatinib -0.037 | sotrastaurin -0.035 | alvocidib 0.01 | Tubastatin A -0.054 | [6] 0.028 | defactinib 0.03 | [7] 0.081 | encorafenib -0.034 | [8] 0.066 | alisertib -0.053 | [9] -0.021 | gefitinib 0.099

SPTAN1 (UniProt Q13813)
inactive: vemurafenib -0.008 | [1] 0.01 | barasertib 0.011 | [2] 0.033 | volasertib 0.005 | [3] 0.004 | [4] -0.05 | [5] 0.016 | saracatinib 0.025 | sotrastaurin 0.004 | alvocidib 0.005 | Tubastatin A 0.022 | [6] 0.015 | defactinib 0.001 | [7] -0.006 | encorafenib 0.015 | [8] -0.024 | alisertib -0.018 | [9] 0.016 | gefitinib 0.008

ST6GAL1 (UniProt P15907)
inactive: vemurafenib 0.08 | [1] 0.009 | barasertib 0.022 | [2] 0.092 | volasertib -0.024 | [3] -0.031 | [4] 0.007 | [5] -0.042 | saracatinib 0.035 | sotrastaurin 0.038 | alvocidib 0.014 | Tubastatin A 0.045 | [6] 0.04 | defactinib 0.112 | [7] 0.002 | encorafenib -0.109 | [8] -0.02 | alisertib 0.026 | [9] -0.032 | gefitinib 0

SPAST (UniProt Q9UBP0)
inactive: vemurafenib 0.045 | [1] 0.021 | barasertib 0.07 | [2] -0.007 | volasertib -0.016 | [3] -0.023 | [4] -0.011 | [5] 0.042 | saracatinib 0.017 | sotrastaurin 0.032 | alvocidib 0.003 | Tubastatin A 0.013 | [6] -0.024 | defactinib -0.001 | [7] -0.017 | encorafenib 0.042 | [8] -0.019 | alisertib -0.034 | [9] -0.007 | gefitinib -0.035

SRCAP (UniProt Q6ZRS2)
inactive: vemurafenib -0.003 | [1] -0.004 | barasertib 0.004 | [2] 0.009 | volasertib 0 | [3] 0.034 | [4] 0.035 | [5] 0.034 | saracatinib 0.057 | sotrastaurin -0.004 | alvocidib -0.018 | Tubastatin A -0.022 | [6] -0.011 | defactinib 0 | [7] -0.103 | encorafenib 0.017 | [8] 0.101 | alisertib -0.026 | [9] 0.009 | gefitinib -0.02

SRSF8 (UniProt Q9BRL6)
inactive: vemurafenib 0.01 | [1] -0.025 | barasertib 0.014 | [2] -0.074 | volasertib 0.016 | [3] -0.008 | [4] 0.007 | [5] 0.087 | saracatinib -0.003 | sotrastaurin -0.007 | alvocidib -0.025 | Tubastatin A 0.04 | [6] -0.008 | defactinib -0.011 | [7] -0.017 | encorafenib -0.032 | [8] 0.009 | alisertib -0.001 | [9] 0.013 | gefitinib 0.078

SPG21 (UniProt Q9NZD8)
inactive: vemurafenib 0 | [1] 0.035 | barasertib 0.015 | [2] -0.046 | volasertib -0.111 | [3] -0.03 | [4] -0.027 | [5] -0.028 | saracatinib 0.017 | sotrastaurin 0.048 | alvocidib -0.005 | Tubastatin A -0.069 | [6] -0.021 | defactinib 0.01 | [7] -0.074 | encorafenib 0.024 | [8] 0.067 | alisertib 0.011 | [9] -0.011 | gefitinib 0.006

SPATA5 (UniProt Q8NB90)
inactive: vemurafenib 0.015 | [1] 0.005 | barasertib 0.02 | [2] -0.021 | volasertib -0.068 | [3] 0.011 | [4] -0.024 | [5] -0.052 | saracatinib -0.001 | sotrastaurin 0.007 | alvocidib 0.033 | Tubastatin A -0.101 | [6] 0.007 | defactinib 0.029 | [7] 0.085 | encorafenib 0.04 | [8] 0.008 | alisertib 0.025 | [9] 0.004 | gefitinib -0.024

Fetched one by one from the list above (2):
SPATS2 (UniProt Q86XZ4)
inactive: vemurafenib -0.013 | [1] 0.032 | barasertib 0.071 | [2] -0.175 | volasertib -0.041 | [3] 0.128 | [4] 0.144 | [5] 0.038 | saracatinib -0.12 | sotrastaurin 0.031 | alvocidib 0.039 | Tubastatin A -0.075 | [6] 0.019 | defactinib 0.353 | [7] 0.036 | encorafenib 0.066 | [8] -0.195 | alisertib -0.015 | [9] -0.047 | gefitinib 0

STIL isoform 2 (UniProt Q15468)
inactive: vemurafenib 0.018 | [1] -0.059 | barasertib 0.042 | [2] 0.04 | volasertib -0.023 | [3] -0.032 | [4] -0.003 | [5] -0.016 | saracatinib 0.027 | sotrastaurin 0.045 | alvocidib 0.021 | Tubastatin A -0.164 | [6] 0.011 | defactinib 0.051 | [7] 0.001 | encorafenib 0.083 | [8] -0.012 | alisertib 0.09 | [9] 0.086 | gefitinib 0.033

Further results:

STARD3NL (UniProt O95772)
inactive: vemurafenib 0.046 | [1] 0.01 | barasertib 0.002 | [2] 0 | volasertib 0.015 | [3] 0.06 | [4] -0.218 | [5] 0.188 | saracatinib 0.013 | sotrastaurin 0.027 | alvocidib -0.063 | Tubastatin A -0.006 | [6] -0.012 | defactinib 0.058 | [7] -0.074 | encorafenib 0.087 | [8] -0.083 | alisertib 0.033 | [9] 0.042 | gefitinib 0.136

SRXN1 (UniProt Q9BYN0)
inactive: vemurafenib 0.132 | [1] -0.047 | barasertib 0.023 | [2] 0.065 | volasertib 0.041 | [3] 0.034 | [4] -0.041 | [5] -0.073 | saracatinib 0.043 | sotrastaurin -0.012 | alvocidib 0.041 | Tubastatin A 0.053 | [6] 0.061 | defactinib 0.025 | [7] -0.03 | encorafenib -0.08 | [8] 0.233 | alisertib 0.033 | [9] 0.028 | gefitinib -0.017
